PMC12884770
Results are given in words; binding and its absence hold for the method and conditions named. Binding seen in cells or lysates may run through a third protein. Binding can be weak; no strength is given. Tags and fused reporters may be left off the sequences shown.

Target: T1, HA-tagged VPS4A (human) (UniProt Q9UN37)
T1 sequence: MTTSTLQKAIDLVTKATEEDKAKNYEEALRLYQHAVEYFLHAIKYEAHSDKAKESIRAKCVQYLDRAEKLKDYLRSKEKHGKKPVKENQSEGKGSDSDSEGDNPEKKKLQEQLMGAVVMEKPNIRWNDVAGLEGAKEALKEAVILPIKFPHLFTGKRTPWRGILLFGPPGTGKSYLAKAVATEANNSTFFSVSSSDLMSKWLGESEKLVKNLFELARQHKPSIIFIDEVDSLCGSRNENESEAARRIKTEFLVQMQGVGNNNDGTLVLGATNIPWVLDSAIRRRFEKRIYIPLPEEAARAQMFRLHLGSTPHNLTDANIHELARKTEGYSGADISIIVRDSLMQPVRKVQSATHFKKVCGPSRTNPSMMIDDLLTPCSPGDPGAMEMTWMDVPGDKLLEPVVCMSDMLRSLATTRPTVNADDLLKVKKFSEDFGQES
Assay: co-IP; HEK293T co-transfected for 24 h with FLAG-tagged ZFYVE19 or its variants and HA-tagged partner; cells sonicated in 1× DPBS; lysate on EZview Red Anti-HA Affinity Gel overnight at 4 °C; five washes with 1× TBS; blots with anti-HA and anti-FLAG

binding | Substance
no binding | FLAG-tagged ZFYVE19 FYVE domain (human) (domain or fragment)
binds | FLAG-tagged ZFYVE19 MIM1 domain (human) (domain or fragment)
